At least one structure is not confirmed: it was looked up by name or label, or the drawing left a doubt.
Tested on: PFK1-mEGFP clustering in HeLa-T-PFK1G cells
Experiment: qHTS PFK1-mEGFP clustering assay with the LOKI library
Type: cell-based, human
Details: for Curve Class: LOKI screen, PFK1-mEGFP clustering vs log compound concentration, Table 3 hits
Method: HeLa-T-PFK1G cells were plated in 1536-well black, clear bottom, low base microwell plates (Aurora Microplates, Inc.) at a density of 400 cells/well in DMEM supplemented with 10% dialyzed FBS, 1% Pen-Strep, and 1 μg/mL doxycycline. The cells were incubated at 37° C., 5% CO2, and 95% humidity for 16 hours. A qHTS assay was scaled to 4 μL volumes in 1536-well format in a semi-automated manner.
Second, the qHTS assay was carried out with the LOKI library (10 mM, 11-point 1:3 intra-plate titration). Again, 23 nL of compounds were transferred by a pintool (Kalypsys) in the final concentration range of 974 pM to 57.5 μM along with DMSO. […] The cells were then incubated overnight with small molecules. Approximately 24 hours later, the cells were fixed with 3.5% paraformaldehyde and nuclei were stained using a 1:1000 dilution of Hoechst dye for ˜20 minutes. Cells were washed and imaged with an INCell Analyzer 2000 or INCell Analyzer 2200 (GE Healthcare Life Sciences) as described above.
Images were processed in the GE Workstation software and analyzed with a multitarget analysis of fluorescence. Top-hat segmentation of the DAPI channel was used to identify nuclei with a minimum area of 100 μm^2 and sensitivity of 40 settings. Multiscale top-hat segmentation of the FITC channel was used to identify cells with a characteristic area of 200 μm^2 and sensitivity of 70 settings. This allowed for the identification of fluorescent cells from the background or dead cells. Following cell segmentation, the same FITC channel was analyzed with multiscale top-hat segmentation to identify PFK1-mEGFP clusters with a size range of 0.2-2 μm^2, number scales of 1, process parameters of 1 pixel, sensitivity of 40, and inclusions in the cytoplasm. A filter of object area, that is, the area of PFK1-mEGFP clusters, below 30 μm^2 and an advanced sensitivity range of 1.5, was also applied. A decision tree thresholding was developed to identify cells with PFK1 clusters with three nodes. The start node required a cell intensity above 110 GL, the second node required a PFK1 cluster count above 1, and the third node required the total area of the PFK1 cluster above 5 μm^2. Ultimately, this allowed for the identification of cluster-positive cells over non-clustering cells. The total number of cells with a total area of PFK1 clusters above 5 μm^2 (most stringent parameter) and the total number of cells with any PFK1 clusters were calculated with the above algorithm and normalized by plate to the 57.5 μM kenpaullone intra-plate control as previously described (Inglese et al., 2006). Assay effectiveness including S:N (the signal to noise ratio) and Z′ (the index of assay quality (Zhang et al., 1999)) were calculated for both parameters using the same respective control. […]

Row | SMILES | Curve Class | PFK1-mEGFP clustering when the assay was repeated (repeat of the LOKI assay, FIGS. 8A-8C)
1 | COc1cccc2c1[C@]13CCN(CC4CC4)[C@H](C2)[C@]1(OC)CCC(=O)C3 [NCGC00344512-01] | 1.1/1.2 | –
2 | CCS(=O)(=O)Nc1ccc2c(c1)/C(=C(/Nc1ccc(CN3CCCCC3)cc1)c1ccccc1)C(=O)N2 [NCGC00346542-01, Hesperadin] | – | induced PFK1-mEGFP clustering
3 | CC(=O)OC1C(C)OC(Oc2c(-c3ccc(O)cc3)oc3cc(O)cc(O)c3c2=O)C(O)C1OC(C)=O (stereo not shown) [NCGC00346893-01, SL-0101-1] | 2.1/2.2 | –
4 | COc1ccc(N(C(=O)Oc2c(C)cccc2C)c2ccnc(Nc3ccc(N4CCN(C)CC4)cc3)n2)c(OC)c1 [NCGC00346959-01] | 2.1/2.2 | –
